Data source: PubChem BioAssay AID1259424 (University of Nebraska Medical Center, 2018)

Purpose: 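Find knockdowns that reproduce the expression shifts seen after KSR1 loss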 (primary screen)
Cell system: human HCT116 colon cancer cells
Knock-down reagent: siRNA pool against human genes, 50 nM
Measurement: 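Six signature mRNAs by branched-DNA multiplex assay, scaled to two housekeeping genes and non-targeting median, log2; matched to mean KSR1 knockdown profile by Pearson correlation and euclidean distance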
Scale: mean correlation with KSR1 profile: higher = expression change more like KSR1 knockdown; mean distance from KSR1 profile: higher = expression change less like KSR1 knockdown
Shown is an unselected part of about 14,000 deposited reagents. 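Higher correlation or smaller distance means closer resemblance to KSR1 loss; control wells, including KSR1 knockdowns, recur on many plates.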 A reagent listed more than once was tested more than once; the source does not tell the runs apart. Not all columns of the deposit are shown. Not given: the time to read-out.

The opening 3 entries as a preview:
{"gene knocked down": "NTN3 (netrin 3)", "mean correlation with KSR1 profile": -0.367, "mean distance from KSR1 profile": 3.85}
{"gene knocked down": "P2RY2 (purinergic receptor P2Y2)", "mean correlation with KSR1 profile": 0.574, "mean distance from KSR1 profile": 2.35}
{"gene knocked down": "P2RY2 (purinergic receptor P2Y2)", "mean correlation with KSR1 profile": -0.0183, "mean distance from KSR1 profile": 2.35}

Main list, repeating the preview:
{"gene knocked down": "NTN3 (netrin 3)", "mean correlation with KSR1 profile": -0.367, "mean distance from KSR1 profile": 3.85}
{"gene knocked down": "P2RY2 (purinergic receptor P2Y2)", "mean correlation with KSR1 profile": 0.574, "mean distance from KSR1 profile": 2.35}
{"gene knocked down": "P2RY2 (purinergic receptor P2Y2)", "mean correlation with KSR1 profile": -0.0183, "mean distance from KSR1 profile": 2.35}
{"gene knocked down": "ATP13A4 (ATPase 13A4)", "mean correlation with KSR1 profile": -0.181, "mean distance from KSR1 profile": 4.7}
{"gene knocked down": "CD300A (CD300a molecule)", "mean correlation with KSR1 profile": -0.0133, "mean distance from KSR1 profile": 1.98}
{"gene knocked down": "TCHH (trichohyalin)", "mean correlation with KSR1 profile": 0.789, "mean distance from KSR1 profile": 1.79}
{"gene knocked down": "SLC25A5", "mean correlation with KSR1 profile": -0.653, "mean distance from KSR1 profile": 2.54}
{"gene knocked down": "JADE3 (jade family PHD finger 3)", "mean correlation with KSR1 profile": -0.117, "mean distance from KSR1 profile": 3.57}
{"gene knocked down": "TKT (transketolase)", "mean correlation with KSR1 profile": -0.726, "mean distance from KSR1 profile": 2.72}
{"gene knocked down": "RABEP1 (rabaptin, RAB GTPase binding effector protein 1)", "mean correlation with KSR1 profile": -0.064, "mean distance from KSR1 profile": 2.04}
{"gene knocked down": "ARL3 (ARF like GTPase 3)", "mean correlation with KSR1 profile": 0.769, "mean distance from KSR1 profile": 1.1}
{"gene knocked down": "PFN2 (profilin 2)", "mean correlation with KSR1 profile": 0.403, "mean distance from KSR1 profile": 2.18}
{"gene knocked down": "AIMP2", "mean correlation with KSR1 profile": -0.043, "mean distance from KSR1 profile": 1.2}
{"gene knocked down": "RAB7A (RAB7A, member RAS oncogene family)", "mean correlation with KSR1 profile": -0.451, "mean distance from KSR1 profile": 1.87}
{"gene knocked down": "TRMT6 (tRNA methyltransferase 6 non-catalytic subunit)", "mean correlation with KSR1 profile": -0.425, "mean distance from KSR1 profile": 1.94}
{"gene knocked down": "CAMTA1 (calmodulin binding transcription activator 1)", "mean correlation with KSR1 profile": -0.586, "mean distance from KSR1 profile": 1.97}
{"gene knocked down": "MICAL1", "mean correlation with KSR1 profile": -0.117, "mean distance from KSR1 profile": 2.42}
{"gene knocked down": "RGL3 (ral guanine nucleotide dissociation stimulator like 3)", "mean correlation with KSR1 profile": -0.0882, "mean distance from KSR1 profile": 1.21}
{"gene knocked down": "LDLR (low density lipoprotein receptor)", "mean correlation with KSR1 profile": -0.14, "mean distance from KSR1 profile": 1.79}
{"gene knocked down": "MTCL2 (microtubule crosslinking factor 2)", "mean correlation with KSR1 profile": -0.435, "mean distance from KSR1 profile": 3.38}
{"gene knocked down": "TBCCD1 (TBCC domain containing 1)", "mean correlation with KSR1 profile": -0.809, "mean distance from KSR1 profile": 6.82}
{"gene knocked down": "LMO4 (LIM domain only 4)", "mean correlation with KSR1 profile": 0.0664, "mean distance from KSR1 profile": 1.96}
{"gene knocked down": "DCLK2 (doublecortin like kinase 2)", "mean correlation with KSR1 profile": 0.247, "mean distance from KSR1 profile": 2.57}
{"gene knocked down": "CCL27 (C-C motif chemokine ligand 27)", "mean correlation with KSR1 profile": -0.201, "mean distance from KSR1 profile": 1.31}
{"gene knocked down": "DPP7 (dipeptidyl peptidase 7)", "mean correlation with KSR1 profile": 0.473, "mean distance from KSR1 profile": 2.85}
{"gene knocked down": "CDC14A (cell division cycle 14A)", "mean correlation with KSR1 profile": -0.158, "mean distance from KSR1 profile": 1.92}
{"gene knocked down": "ATP6V0B (ATPase H+ transporting V0 subunit b)", "mean correlation with KSR1 profile": -0.531, "mean distance from KSR1 profile": 5.66}
{"gene knocked down": "LETMD1 (LETM1 domain containing 1)", "mean correlation with KSR1 profile": -0.386, "mean distance from KSR1 profile": 2}
